PubChem BioAssay AID1259405 | NCATS – 2018

Screen: 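Silenced genes that increase secreted GFP made by CHO cells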 (primary screen)
Cell system: Chinese hamster CHO-K1 ovary cells with stable secreted eGFP expression
Reagents: single siRNA against mouse genes, 0.8 pmol siRNA per well (2 µl of 400 nM stock)
Duration: 3 days
Read-out: 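Percent of the per-plate non-targeting control median for intracellular GFP per well by laser scanning cytometry and for cell viability by ATP luminescence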
Scale: GFP, % of control: higher = more GFP per well, higher productivity; viability (ATP), % of control: higher = more viable cells (more ATP)
Hit rule: 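Called active when intracellular GFP, relative to negative control, is at or above 120%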
Shown is an unselected part of about 50,000 reagents tested. About 4,000 of all reagents (8%) were called active. 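Mouse siRNA library applied to hamster cells; one well for each siRNA.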 A number with no mark means an inactive call.

gene knocked down | PubChem SID | GFP, % of control | viability (ATP), % of control
1700128F08Rik | SID363543341 | 56.1 | 49.1
1700128F08Rik | SID363552834 | 50.3 | 18.3
1700128F08Rik | SID363558682 | 81.4 | 62.1
Serpina5 | SID363573062 | 76.7 | 106
Serpina5 | SID363577638 | 79.2 | 97.3
Serpina5 | SID363581158 | 60.3 | 73.6
Tppp3 | SID363541200 | 59.9 | 72.1
Tppp3 | SID363555827 | 49.2 | 73.1
Tppp3 | SID363566116 | 59.3 | 69.7
Angptl4 | SID363572204 | 61.9 | 72.7
Angptl4 | SID363573964 | 38.2 | 61.9
Dpp7 | SID363574381 | 106 | 96.5
Dpp7 | SID363575437 | 112 | 91.8
Dpp7 | SID363580013 | 72.3 | 88.9
Or13p4 | SID363544447 | 81.6 | 67.7
Or13p4 | SID363550775 | 45.7 | 52.6
Or13p4 | SID363557324 | 42.8 | 61.1
Rabgap1l | SID363545106 | 81.2 | 53.2
Rabgap1l | SID363548619 | 66.7 | 62.8
Rabgap1l | SID363562425 | 75.5 | 67.7
Tbca | SID363556315 | 47.6 | 74.7
Tbca | SID363586765 | 76.7 | 112
Tbca | SID363588873 | 147 (active) | 111
Med7 | SID363550126 | 46.8 | 64.1
Med7 | SID363564635 | 64.2 | 66.4
Med7 | SID363588180 | 94.4 | 129
Galnt7 | SID363570380 | 139 (active) | 97.4
Galnt7 | SID363579180 | 107 | 71.4
Galnt7 | SID363583052 | 112 | 90.9
Or9r3 | SID363545022 | 39.7 | 53.8
Or9r3 | SID363551350 | 72.9 | 84.6
Or9r3 | SID363557899 | 19.8 | 22.5
Snx16 | SID363570823 | 142 (active) | 72.4
Aicda | SID363569834 | 108 | 95.3
Aicda | SID363576874 | 103 | 80
Aicda | SID363578282 | 110 | 101
Pilrb1 | SID363554651 | 43.4 | 21.2
Pilrb1 | SID363568098 | 57.5 | 57
Pilrb1 | SID363586157 | 111 | 75.3
Atp8a1 | SID363569676 | 127 (active) | 82.9
Atp8a1 | SID363576716 | 80.4 | 65.4
Atp8a1 | SID363578124 | 107 | 105
Or4b1c | SID363554115 | 75.2 | 78.4
Or4b1c | SID363567562 | 35.8 | 43.8
Or4b1c | SID363584919 | 62.7 | 93.6

A run of entries taken from the entries so far:
gene knocked down | PubChem SID | GFP, % of control | viability (ATP), % of control
Tppp3 | SID363541200 | 59.9 | 72.1
Tppp3 | SID363555827 | 49.2 | 73.1
Tppp3 | SID363566116 | 59.3 | 69.7
Angptl4 | SID363572204 | 61.9 | 72.7
Angptl4 | SID363573964 | 38.2 | 61.9
Dpp7 | SID363574381 | 106 | 96.5
Dpp7 | SID363575437 | 112 | 91.8
Dpp7 | SID363580013 | 72.3 | 88.9
Or13p4 | SID363544447 | 81.6 | 67.7
Or13p4 | SID363550775 | 45.7 | 52.6
Or13p4 | SID363557324 | 42.8 | 61.1
Rabgap1l | SID363545106 | 81.2 | 53.2
Rabgap1l | SID363548619 | 66.7 | 62.8
Rabgap1l | SID363562425 | 75.5 | 67.7

Further results follow:
gene knocked down | PubChem SID | GFP, % of control | viability (ATP), % of control
Mat1a | SID363570376 | 68.5 | 81
Mat1a | SID363579176 | 68.4 | 136
Mat1a | SID363583048 | 113 | 111
Txlng | SID363553816 | 82.6 | 47.8
Txlng | SID363561773 | 105 | 77.9
Txlng | SID363565511 | 89.7 | 56.3
Lin9 | SID363584456 | 73.7 | 75.5
Lin9 | SID363589486 | 65.5 | 76.5
Egln2 | SID363556857 | 50 | 40.4
Egln2 | SID363563761 | 84.1 | 83.2
Egln2 | SID363587307 | 47.1 | 74.5
Cnr1 | SID363571246 | 79.7 | 45.1
Cnr1 | SID363571598 | 66 | 72.4
Cnr1 | SID363571950 | 50.2 | 30.4
Arx | SID363569343 | 63.7 | 85.3
Arx | SID363577087 | 87.7 | 81
Arx | SID363578495 | 31.7 | 34.6
Alkbh6 | SID363546514 | 72.7 | 76
Alkbh6 | SID363548270 | 85.2 | 75.6
Alkbh6 | SID363560448 | 101 | 95.2
Leprotl1 | SID363544273 | 92.1 | 83
Leprotl1 | SID363550601 | 84.2 | 65.3
Leprotl1 | SID363557150 | 159 (active) | 110
H2ac25 | SID363546110 | 70.2 | 101
H2ac25 | SID363549623 | 108 | 86.2
H2ac25 | SID363563429 | 62.5 | 71.7
Adam26b | SID363547233 | 74.3 | 71.6
Adam26b | SID363558002 | 131 (active) | 99.6
Adam26b | SID363559760 | 76.9 | 80
Or2w1 | SID363554114 | 70.3 | 51.9
Or2w1 | SID363567561 | 122 (active) | 55.3
Or2w1 | SID363584918 | 74.4 | 85.4
Or8c13 | SID363554450 | 83.2 | 43.2
Or8c13 | SID363567897 | 62.2 | 66.1
Or8c13 | SID363585956 | 90.5 | 28.6
Gpr37 | SID363571080 | 136 (active) | 61.4
Gpr37 | SID363571432 | 60.7 | 63.2
Gpr37 | SID363571784 | 72.1 | 68.2
Ubxn1 | SID363539749 | 59.3 | 70.8
Ubxn1 | SID363561050 | 52.3 | 37.7
Ubxn1 | SID363565140 | 52.5 | 56.2
Tektip1 | SID363542325 | 124 (active) | 76.3
Tektip1 | SID363551816 | 134 (active) | 59.4
Tektip1 | SID363559421 | 55.3 | 88.6
Pdlim2 | SID363572270 | 94.1 | 91.8
Pdlim2 | SID363574030 | 94.9 | 80.9
Chrdl2 | SID363541325 | 82.9 | 52.9
Chrdl2 | SID363555952 | 57.3 | 44.2
Chrdl2 | SID363566241 | 62.4 | 60.1
Cdhr3 | SID363541750 | 62.4 | 48.7
Cdhr3 | SID363553342 | 19.4 | 46.8
Cdhr3 | SID363566666 | 48 | 56.8
Vim | SID363572145 | 47.6 | 49.6
Vim | SID363573905 | 3.85 | 10.8
Or8b48 | SID363554661 | 89.2 | 60.2
Or8b48 | SID363568108 | 106 | 67
Or8b48 | SID363586167 | 75.1 | 76.2
Endov | SID363542944 | 136 (active) | 65.3
Endov | SID363546461 | 55 | 30.8
Endov | SID363548217 | 107 | 113
Mrps11 | SID363553918 | 60.3 | 32.6
Mrps11 | SID363561875 | 57.9 | 47.1
Mrps11 | SID363565613 | 39.7 | 47.5
